From PubChem BioAssay AID2685 (National Center for Advancing Translational Sciences (NCATS), 2010)
The whole screen tested about 320,000 compounds, of which about 2,100 (0.66%) were called active. The shares of active, inactive and inconclusive entries below differ from those in the screen. Calls follow the shape of the dose curve; as a rule, active = well fitted inhibition curve with a large enough effect in the signal ratio, with a control signal flat (not every such curve was filed as active); inconclusive = small, poorly fitted or top-dose-only effect, or effect the other way, or a change in a side signal; inactive = flat fitted curve, though single readings scatter; the % refers to the signal ratio. Where the call is inconclusive, the potency comes from a doubtful curve fit.

Assay: qHTS Assay for Lipid Storage Modulators in Drosophila S3 Cells
Settings: BODIPY lipid droplet fluorescence, 18-24 h, cells fed with added oleic acid; lipid storage change, negative = inhibition: at 46.1 µM (top of the series) unless noted
Method in brief: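 Drosophila S3 cells got compounds at several concentrations plus oleic acid (400 uM solution). Laser-scanning cytometry with 488 nm excitation read lipid droplets at 500-530 nm and cells at 575-640 nm. Percent activity was relative to 20 uM Triacsin C.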
% is scaled to controls: 0 for no effect and ±100 for the full control effect; potency is read from the fitted curve at half-maximal effect.

SMILES | lipid storage change, negative = inhibition | Potency
N#C/C(=C\c1ccccc1)C(=O)NCc1ccc(F)cc1 | inconclusive: -100% | 
COC(=O)c1ccc(C)c(NC(=O)CSc2sc3c(O)cc(=O)[nH]c3c2C#N)c1 | inconclusive: 53.7% | 
COc1ccc(N(CC(=O)NC2CCCC2)C(=O)Cn2nnc(-c3ccc(C)cc3)n2)cc1OC | inconclusive: 15.7% | 
O=C(CN1C(=O)S/C(=C\c2ccccc2Cl)C1=O)NCCCn1ccnc1 | inconclusive: -44.5% | 
COc1ccc(-c2[nH]c(-c3ccc4c(c3)OCO4)nc2-c2ccccc2)cc1 |  | inconclusive: 18.4 µM [activator, single point]
FC(F)(F)c1nnc2c(Sc3ccccc3)nc3ccc(Cl)cc3n12 | inconclusive: 25.9% | 
C[C@H]1CN=C(N(C)C)N1CCc1ccc(F)cc1 |  | inconclusive: 29.1 µM [activator, single point]
COc1ccc2c(C)cc(SCC(=O)Nc3cc(C(N)=O)cc(C(N)=O)c3)nc2c1 | inconclusive: -69.1% | 
CC(=O)c1ccc2c(c1)N(CCCN1CCC(CCO)CC1)c1ccccc1S2 | inconclusive: 1.82% | 
O=C(NC(=S)Nc1ccc2oc(=O)ccc2c1)c1cc2ccccc2o1 | inconclusive: 42.9% | 
CCOC(=O)c1sc2nc(C)n(N)c(=O)c2c1C | inconclusive: 30.8% | 
O=c1[nH]c(/C=C/c2cccc3ccccc23)nc2ccccc12 | inactive | 
O=C(O)c1cccc(Nc2ccc([N+](=O)[O-])c3nonc23)c1 | inconclusive: 22.4% | 
COc1ccc2c(c1)OC[C@H]1[C@H]2N2C(=O)c3cc(Cl)ccc3NC(=O)[C@@]2(C)[C@H]1c1ccccc1 | inconclusive: -52.7% | 
O=C(C1CCN(S(=O)(=O)c2cccs2)CC1)N1CCN(Cc2ccccc2)CC1 | inconclusive: 1.21% | 
O=C(Cc1ccc([N+](=O)[O-])cc1)OCc1c(F)cccc1Cl | inconclusive: 5.17% | 
COc1cc(OC)c(CN2CCN(c3ccc(F)cc3)CC2)cc1Br | inconclusive: 0.902% | 
CCCn1c(NC(=O)C23CC4CC(CC(O)(C4)C2)C3)nc2ccccc21 |  | inconclusive: 0.092 µM [activator, full curve, poor fit]
Cc1ccc(OCC(=O)N/N=C\c2ccc(O)cc2)c([N+](=O)[O-])c1 | inconclusive: 8.63% | 
CC(=O)Nc1ccc2c(c1)nc1n2CCN(C(C)c2ccccc2)C1 (centres undefined) | inconclusive: -15.1% | 
CC(=O)Nc1ccc(S(=O)(=O)NCCC(=O)OCC(=O)c2cc(C)ccc2C)cc1 | inconclusive: 26.7% | 
COc1ccc(Br)c(C(=O)OCC(=O)NC2CCCCCC2)c1 | inconclusive: -15.5% | 
O=C(CCc1cn(Cc2ccc(F)cc2)c2ccccc12)N1CCOCC1 | inconclusive: -58.6% | 
O=C(c1ccccc1NS(=O)(=O)c1ccc(Br)s1)N1CCCC1 | inconclusive: -43.4% | 
CCC1CN(C(=O)N2CCC(C(=O)NCc3ccco3)CC2)c2ccccc2O1 (centres undefined) |  | inconclusive: 29.1 µM [activator, single point]

Entries listed so far that contain fluorine (6):
SMILES | lipid storage change, negative = inhibition | Potency
N#C/C(=C\c1ccccc1)C(=O)NCc1ccc(F)cc1 | inconclusive: -100% | 
FC(F)(F)c1nnc2c(Sc3ccccc3)nc3ccc(Cl)cc3n12 | inconclusive: 25.9% | 
C[C@H]1CN=C(N(C)C)N1CCc1ccc(F)cc1 |  | inconclusive: 29.1 µM [activator, single point]
O=C(Cc1ccc([N+](=O)[O-])cc1)OCc1c(F)cccc1Cl | inconclusive: 5.17% | 
COc1cc(OC)c(CN2CCN(c3ccc(F)cc3)CC2)cc1Br | inconclusive: 0.902% | 
O=C(CCc1cn(Cc2ccc(F)cc2)c2ccccc12)N1CCOCC1 | inconclusive: -58.6% | 

Continued:

SMILES | lipid storage change, negative = inhibition | Potency
Cc1nn(-c2ccccc2)c2c1/C(=N/O)CC(C)(C)C2 | inconclusive: 1.02% | 
CC(C)(C)C(=O)Nc1cc2c3c(c1)CCN3C(=O)CC2 |  | inconclusive: 7.31 µM [falling, partial curve, poor fit]
Cc1[nH]c(=O)c(C#N)cc1-c1ccccc1 | inconclusive: -18.1% | 
Cc1ccc(N2C(=O)CCC2(C(N)=O)c2ccccc2)cc1 (centres undefined) |  | inconclusive: 8.2 µM [falling, single point]
CS(=O)(=O)c1cccc(S(=O)(=O)N2CCN(c3ccccn3)CC2)c1 | inconclusive: -40.7% | 
CCn1c(C)c(Br)c(=O)c(C(=O)OC)c1-c1ccc(Cl)cc1 | inconclusive: -13.4% | 
Nn1c(SCC(=O)Nc2ccc(F)cc2F)nnc1-c1cccnc1 | inconclusive: -14.8% | 
CC(C)N(C(=O)CSc1nc(COc2ccccc2)nc2ccccc12)C(C)C | inconclusive: -40.5% | 
Cn1c(=O)c2sccc2n2c(CCCC(=O)NCCc3ccc(S(N)(=O)=O)cc3)nnc12 | inconclusive: 84.1% | 
Cc1ccc(S(=O)(=O)N(Cc2ccccc2)c2ccccc2C(=O)Nc2ccccc2C(=O)NCc2ccco2)cc1 |  | inconclusive: 0.146 µM [rising, full curve, poor fit]
CN(CC(=O)Nc1ccc(Cl)c(C(F)(F)F)c1)CC(=O)NC1CCCCC1 |  | inconclusive: 2.59 µM [activator, single point]
CC1=C(C(=O)OCC(C)C)C(c2ccc(Br)s2)NC(=O)N1 (centres undefined) | inconclusive: 57.4% | 
CC(C)C(NC(=O)CCNC(=O)c1ccc([N+](=O)[O-])cc1)c1nc2ccccc2[nH]1 (centres undefined) |  | inconclusive: 29.1 µM [activator, single point]
CONc1nc2nonc2nc1NOC | inconclusive: -0.129% | 
O=C(c1cc(S(=O)(=O)N2CCCCC2)ccc1Cl)N1CCOCC1 |  | inconclusive: 2.31 µM [activator, partial curve]
CSC(C(=O)c1cc2ccccc2o1)c1ccccc1 (centres undefined) |  | inconclusive: 29.1 µM [falling, single point]
CCOC(=O)c1cnc2nc(Cc3ccccc3)[nH]n2c1=O | inconclusive: 45.5% | 
CS(=O)(=O)N(CC(=O)NCc1ccc2c(c1)OCO2)C1CCCCC1 | inconclusive: -28.2% | 
CNc1nnc(SCC(=O)c2c(N)n(C3CC3)c(=O)[nH]c2=O)s1 | inconclusive | 
Cc1c(CCC(=O)O)c(=O)oc2c(C)c(OCc3cc4c(cc3Cl)OCO4)ccc12 | inconclusive: 1.55% | 
CSCc1ccc(C(=O)Nc2ccc(C(N)=O)cc2)cc1 |  | inconclusive: 29.1 µM [rising, single point]
Cc1c(O)nc(SC2CC(=O)N(c3ccccc3)C2=O)[nH]c1=O (centres undefined) | inconclusive: 10.6% | 
O=C1CCCN2N=C(SCC(=O)Nc3nc4ccccc4s3)SC2=N1 |  | inconclusive: 0.0046 µM [falling, full curve, poor fit]
O=C(NC(=O)c1ccccc1)OCC1CCCN2CCCCC12 (centres undefined) | inconclusive: -34% | 

Quoted at random: two compounds from above, in no set order.
SMILES | lipid storage change, negative = inhibition | Potency
O=C(CCc1cn(Cc2ccc(F)cc2)c2ccccc12)N1CCOCC1 | inconclusive: -58.6% | 
Cc1ccc(OCC(=O)N/N=C\c2ccc(O)cc2)c([N+](=O)[O-])c1 | inconclusive: 8.63% | 
